These are yes or no findings as the source states them, for the method shown. Binding seen in cells or lysates may run through a third protein. Some results given as binding are weak or reduced against the parent protein; the word gives no strength. Sequences can lack the tags named with a protein.
Molecular target: T1, RPOTp-FLAG (Arabidopsis) (UniProt O24600)
T1 sequence: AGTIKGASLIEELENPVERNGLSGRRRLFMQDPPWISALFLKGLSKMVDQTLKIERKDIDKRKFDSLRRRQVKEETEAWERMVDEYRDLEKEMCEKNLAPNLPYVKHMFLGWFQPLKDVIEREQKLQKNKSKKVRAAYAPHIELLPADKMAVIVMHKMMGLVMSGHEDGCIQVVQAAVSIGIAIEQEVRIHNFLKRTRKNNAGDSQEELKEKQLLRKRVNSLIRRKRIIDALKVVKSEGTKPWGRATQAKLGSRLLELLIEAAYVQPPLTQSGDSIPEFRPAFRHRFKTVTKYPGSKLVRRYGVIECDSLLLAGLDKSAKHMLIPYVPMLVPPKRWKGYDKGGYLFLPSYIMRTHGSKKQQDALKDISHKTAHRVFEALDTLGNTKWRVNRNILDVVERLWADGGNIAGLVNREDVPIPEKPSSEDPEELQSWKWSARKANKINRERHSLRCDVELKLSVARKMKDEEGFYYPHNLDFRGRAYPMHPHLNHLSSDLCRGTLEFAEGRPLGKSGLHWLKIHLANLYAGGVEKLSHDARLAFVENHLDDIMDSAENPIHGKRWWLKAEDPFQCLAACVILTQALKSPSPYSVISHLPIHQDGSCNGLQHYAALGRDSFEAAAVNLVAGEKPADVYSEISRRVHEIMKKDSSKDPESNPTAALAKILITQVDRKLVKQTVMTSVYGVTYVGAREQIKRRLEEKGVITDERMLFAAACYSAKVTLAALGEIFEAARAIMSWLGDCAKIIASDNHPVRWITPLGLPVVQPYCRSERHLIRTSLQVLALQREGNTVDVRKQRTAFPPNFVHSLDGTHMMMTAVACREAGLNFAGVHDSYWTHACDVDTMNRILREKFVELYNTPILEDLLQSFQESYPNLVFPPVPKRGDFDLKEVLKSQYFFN
Experiment: co-IP; RPOTp-FLAG and HA-tagged proteins co-infiltrated into Nicotiana benthamiana leaves; lysate on anti-FLAG M2 magnetic beads 2 h at 4 °C, eluted with 3xFLAG peptide; blots with anti-FLAG and anti-HA

Binder | binding
ORRM1-HA (protein, UniProt Q8L440 55-374) SSAISAPPSSTVLTRNSYWMVLLDKPPHWVSSKSAMVDYYVEILAKVLGNEKDAQVSIYDASFDTHFGFCCHIDEDASRQLASLPGVVSIRPEQDYSSEKKNYGIGSHKGVSLFDHGTVKHWMVRIDKPGVGIVTKAQMVDHCVQLLSKVLWNEKDAQMCLYHVSWQSDFGFCCDLDERSAVELAGVPGVLAVVPDNSFESLNKDYEGDSTQDSRDQDDSESPPVKTKKLFITGLSFYTSEKTLRAAFEGFGELVEVKIIMDKISKRSKGYAFLEYTTEEAAGTALKEMNGKIINGWMIVVDVAKTKPFRQNRSQPSFGL | binds

Molecular target: T2, RPOTp-nYFP (Arabidopsis) (UniProt O24600)
T2 sequence: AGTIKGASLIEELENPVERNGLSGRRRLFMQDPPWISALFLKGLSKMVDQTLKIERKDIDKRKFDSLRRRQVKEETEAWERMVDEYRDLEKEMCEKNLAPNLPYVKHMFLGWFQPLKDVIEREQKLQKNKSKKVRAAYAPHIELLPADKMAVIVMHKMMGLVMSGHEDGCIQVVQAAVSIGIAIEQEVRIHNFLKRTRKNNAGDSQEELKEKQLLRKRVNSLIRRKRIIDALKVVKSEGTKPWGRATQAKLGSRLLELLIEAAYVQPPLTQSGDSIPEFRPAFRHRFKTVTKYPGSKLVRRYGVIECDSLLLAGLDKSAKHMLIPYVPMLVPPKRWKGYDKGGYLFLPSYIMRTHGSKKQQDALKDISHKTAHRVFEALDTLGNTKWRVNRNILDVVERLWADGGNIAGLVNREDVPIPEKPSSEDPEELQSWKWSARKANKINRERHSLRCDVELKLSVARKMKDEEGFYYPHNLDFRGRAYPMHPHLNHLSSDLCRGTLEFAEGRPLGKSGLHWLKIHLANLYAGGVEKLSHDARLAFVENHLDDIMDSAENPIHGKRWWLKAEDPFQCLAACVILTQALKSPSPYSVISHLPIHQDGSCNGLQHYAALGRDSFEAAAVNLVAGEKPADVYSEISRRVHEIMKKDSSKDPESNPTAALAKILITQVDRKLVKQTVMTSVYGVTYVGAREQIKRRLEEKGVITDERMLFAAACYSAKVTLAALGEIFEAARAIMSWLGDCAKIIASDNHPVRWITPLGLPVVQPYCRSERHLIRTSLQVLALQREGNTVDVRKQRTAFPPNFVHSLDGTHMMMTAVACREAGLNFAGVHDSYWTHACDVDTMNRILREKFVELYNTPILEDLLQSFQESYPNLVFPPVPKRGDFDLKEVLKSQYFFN
Experiment: split reporter; BiFC: nYFP and cYFP fusions co-infiltrated into epidermal cells of 4-week-old Nicotiana benthamiana leaves, 48 h at 22 °C, confocal microscopy

Binder | binding
ORRM1-cYFP (protein, UniProt Q8L440 55-374) SSAISAPPSSTVLTRNSYWMVLLDKPPHWVSSKSAMVDYYVEILAKVLGNEKDAQVSIYDASFDTHFGFCCHIDEDASRQLASLPGVVSIRPEQDYSSEKKNYGIGSHKGVSLFDHGTVKHWMVRIDKPGVGIVTKAQMVDHCVQLLSKVLWNEKDAQMCLYHVSWQSDFGFCCDLDERSAVELAGVPGVLAVVPDNSFESLNKDYEGDSTQDSRDQDDSESPPVKTKKLFITGLSFYTSEKTLRAAFEGFGELVEVKIIMDKISKRSKGYAFLEYTTEEAAGTALKEMNGKIINGWMIVVDVAKTKPFRQNRSQPSFGL | binds
MORF2-cYFP (protein, UniProt O22793 49-219) CGANRSGSTYSPLNSGSNFSDRPPTEMAPLFPGCDYEHWLIVMDKPGGEGATKQQMIDCYIQTLAKVVGSEEEAKKRIYNVSCERYLGFGCEIDEETSTKLEGLPGVLFVLPDSYVDPENKDYGAELFVNGEIVQRSPERQRRVEPQPQRAQDRPRYNDRTRYSRRRENTR | binds
MORF8-cYFP (protein, UniProt Q9LKA5 57-395) GGLVSVKGLSTQATSSSLNDPNPNWSNRPPKETILLDGCDFEHWLVVVEPPQGEPTRDEIIDSYIKTLAQIVGSEDEARMKIYSVSTRCYYAFGALVSEDLSHKLKELSNVRWVLPDSYLDVRNKDYGGEPFIDGKAVPYDPKYHEEWIRNNARANERNRRNDRPRNNDRSRNFERRRENMAGGPPPQRPPMGGPPPPPHIGGSAPPPPHMGGSAPPPPHMGQNYGPPPPNNMGGPRHPPPYGAPPQNNMGGPRPPQNYGGTPPPNYGGAPPANNMGGAPPPNYGGGPPPQYGAVPPPQYGGAPPQNNNYQQQGSGMQQPQYQNNYPPNRDGSGNPYQG | binds
MORF9-cYFP (protein, UniProt Q9LPZ1 59-232) AATVDSDYSSKRSNSNEQRETIMLPGCDYNHWLIVMEFPKDPAPSRDQMIDTYLNTLATVLGSMEEAKKNMYAFSTTTYTGFQCTIDEETSEKFKGLPGVLWVLPDSYIDVKNKDYGGDKYINGEIIPCTYPTYQPKQRNNTKYQSKRYERKRDGPPPPEQRKPRQEPAASDSS | binds
